The text below walks through data of PMC6745524, “Diverse roles of TssA‐like proteins in the assembly of bacterial type VI secretion systems” (The EMBO Journal, 2019).

In the assay the target is T1, TssAVC, bacterial two-hybrid fusion (Vibrio cholerae) (UniProt Q9KN46).
T1 sequence: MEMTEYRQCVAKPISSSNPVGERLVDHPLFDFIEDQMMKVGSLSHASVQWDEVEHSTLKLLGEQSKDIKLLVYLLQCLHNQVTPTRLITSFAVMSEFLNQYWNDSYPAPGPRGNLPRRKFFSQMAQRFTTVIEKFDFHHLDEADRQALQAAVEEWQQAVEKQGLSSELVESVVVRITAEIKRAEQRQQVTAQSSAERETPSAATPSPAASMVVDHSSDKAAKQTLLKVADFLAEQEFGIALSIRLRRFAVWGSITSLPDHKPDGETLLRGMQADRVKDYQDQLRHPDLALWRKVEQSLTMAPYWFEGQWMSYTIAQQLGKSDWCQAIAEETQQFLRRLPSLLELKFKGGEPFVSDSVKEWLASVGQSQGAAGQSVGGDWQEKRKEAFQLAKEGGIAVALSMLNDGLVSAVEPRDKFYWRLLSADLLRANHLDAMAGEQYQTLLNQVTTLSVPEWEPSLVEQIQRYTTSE
Briefly: two-hybrid; bacterial two-hybrid system (Euromedex); cells incubated at 30°C for 24-48 h.

No constants are given. Whether binding was seen depends on the method and setting. A result given as binding can be weak or reduced; the word gives no strength. Tags and fused reporters may be left off the sequences shown.

As to “VipB, bacterial two-hybrid fusion (Vibrio cholerae)”, the binding result is reported as “binds”.
As for “TagAVC, bacterial two-hybrid fusion (Vibrio cholerae)”, the binding result is “binds”.
With “ClpV, bacterial two-hybrid fusion (Vibrio cholerae)” the entry was “binds”.
